These are yes or no findings as the source states them, for the method shown. Some entries that bind do so weakly or less than the wild type.
Molecular target: human CD137 expressed on cells (human) (UniProt Q07011)
Experiment: flow cytometry, pre-stimulated human CD8+ T cells, biotinylated-PSMA detection

Amino acid sequences for entries named in this document (tags omitted). A change or cut given only in a name is not applied to a line headed by its entry.
UniProt Q07011: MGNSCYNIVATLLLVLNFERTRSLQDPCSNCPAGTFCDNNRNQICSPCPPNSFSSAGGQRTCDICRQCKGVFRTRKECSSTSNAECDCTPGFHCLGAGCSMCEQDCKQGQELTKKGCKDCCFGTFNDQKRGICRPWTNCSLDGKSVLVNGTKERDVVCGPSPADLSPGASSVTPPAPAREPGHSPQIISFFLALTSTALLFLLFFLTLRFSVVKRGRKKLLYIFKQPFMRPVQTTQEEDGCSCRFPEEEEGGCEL

binding: binds
B1: 4.1-6GS-1.113 (bispecific antibody)
chain: EVQLVESGGGVVQPGRSLRLSCAASGFSFSGYGMHWVRQAPGKGLEWVAYISYDGSNKYYADSVKGRFTISRDNSKNTLYLQMNSLRAEDTAVYYCAKDPAWGLRLGESSSYDFDIWGQGTMVTVSSGGGGSGGGGSGGGGSGGGGSGGGGSGGGGSEVQLVESGGGLVQPGGSLRLSCAASGFTLSNYWMNWVRQAPGKGLEWVANINQDGSERYYVDSVKGRFTISRDNAKNSLYLQMNSLRAEDTAVYYCARGGEGYGVDHYGLDVSGQGTTVTVSS
